No constants are given. Whether binding was seen depends on the method and setting. In cells and extracts the contact can be indirect. Some results given as binding are weak or reduced against the parent protein; the word gives no strength.

By UniProt entry, the sequences of proteins in these tests, tags left out.
UniProt Q6Y1S1: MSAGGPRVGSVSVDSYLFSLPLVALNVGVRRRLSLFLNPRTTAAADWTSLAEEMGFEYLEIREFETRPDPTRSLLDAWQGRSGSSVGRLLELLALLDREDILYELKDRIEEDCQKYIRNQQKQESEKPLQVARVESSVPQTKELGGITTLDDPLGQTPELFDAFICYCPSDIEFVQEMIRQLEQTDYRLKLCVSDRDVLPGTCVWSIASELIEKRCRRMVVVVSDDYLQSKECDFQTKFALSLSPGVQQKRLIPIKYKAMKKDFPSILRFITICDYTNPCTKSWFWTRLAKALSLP

This test deals with T1, TLR4 (rat (endogenous in primary rat chondrocytes)) (UniProt Q9QX05).
T1 sequence: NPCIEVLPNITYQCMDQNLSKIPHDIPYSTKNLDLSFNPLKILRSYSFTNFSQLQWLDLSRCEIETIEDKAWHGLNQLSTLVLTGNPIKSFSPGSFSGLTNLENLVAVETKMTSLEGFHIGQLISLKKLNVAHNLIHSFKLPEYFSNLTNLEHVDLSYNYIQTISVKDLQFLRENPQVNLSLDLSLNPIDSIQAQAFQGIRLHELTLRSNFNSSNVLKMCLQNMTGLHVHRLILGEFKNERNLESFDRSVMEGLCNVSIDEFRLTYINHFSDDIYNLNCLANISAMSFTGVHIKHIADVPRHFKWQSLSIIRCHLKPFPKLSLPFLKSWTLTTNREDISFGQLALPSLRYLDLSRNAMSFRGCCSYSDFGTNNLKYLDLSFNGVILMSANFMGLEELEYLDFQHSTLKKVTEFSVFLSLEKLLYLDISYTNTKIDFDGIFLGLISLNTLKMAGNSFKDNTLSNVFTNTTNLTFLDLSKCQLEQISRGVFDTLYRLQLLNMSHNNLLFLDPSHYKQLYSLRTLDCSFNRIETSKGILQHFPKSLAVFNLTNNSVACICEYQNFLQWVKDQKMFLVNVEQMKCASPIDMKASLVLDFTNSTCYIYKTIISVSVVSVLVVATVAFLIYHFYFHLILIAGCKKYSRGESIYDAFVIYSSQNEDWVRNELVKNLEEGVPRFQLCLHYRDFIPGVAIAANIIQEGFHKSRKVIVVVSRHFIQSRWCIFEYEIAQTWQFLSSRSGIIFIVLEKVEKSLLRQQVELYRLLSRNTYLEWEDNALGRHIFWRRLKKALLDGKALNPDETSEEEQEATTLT
The test is described as follows: co-IP; endogenous proteins of primary rat chondrocytes; cells pretreated or not with 200 ug/mL GBT for 1 h, then stimulated with 100 ng/mL LPS for 30 min; coimmunoprecipitation kit (Absin); TLR4-bound MyD88 detected.

Turning to MyD88 (from UniProt Q6Y1S1 1-296), the binding entry is reported as “binds”.

For the origin of these results see article PMC9200584.
